In article doi:10.1101/2024.09.05.611512:
Results are given in words; binding and its absence hold for the method and conditions named. In cells and extracts the contact can be indirect. These calls come from enrichment with a bait or labelling near it, and not all partners need be listed.

target: CAPN2[C105S]-3xFlag-6xHis in complex with calpain small subunit CAPNS1(86–268); assay: affinity purification with mass spectrometry; 3xFlag peptide, dCAPN1-3xFlag or dCAPN2-3xFlag bait on anti-Flag agarose beads; HCT116 cytosol with 2 mM CaCl2 and E64; EGTA elutions analysed by mass spectrometry; only the target purified

binding	Binder
binds	annexin A7 (protein, UniProt P20073 1-488) MSYPGYPPTGYPPFPGYPPAGQESSFPPSGQYPYPSGFPPMGGGAYPQVPSSGYPGAGGYPAPGGYPAPGGYPGAPQPGGAPSYPGVPPGQGFGVPPGGAGFSGYPQPPSQSYGGGPAQVPLPGGFPGGQMPSQYPGGQPTYPSQINTDSFSSYPVFSPVSLDYSSEPATVTQVTQGTIRPAANFDAIRDAEILRKAMKGFGTDEQAIVDVVANRSNDQRQKIKAAFKTSYGKDLIKDLKSELSGNMEELILALFMPPTYYDAWSLRKAMQGAGTQERVLIEILCTRTNQEIREIVRCYQSEFGRDLEKDIRSDTSGHFERLLVSMCQGNRDENQSINHQMAQEDAQRLYQAGEGRLGTDESCFNMILATRSFPQLRATMEAYSRMANRDLLSSVSREFSGYVESGLKTILQCALNRPAFFAERLYYAMKGAGTDDSTLVRIVVTRSEIDLVQIKQMFAQMYQKTLGTMIAGDTSGDYRRLLLAIVGQ
binds	annexin A4 (protein, UniProt P09525 1-319) MATKGGTVKAASGFNAMEDAQTLRKAMKGLGTDEDAIISVLAYRNTAQRQEIRTAYKSTIGRDLIDDLKSELSGNFEQVIVGMMTPTVLYDVQELRRAMKGAGTDEGCLIEILASRTPEEIRRISQTYQQQYGRSLEDDIRSDTSFMFQRVLVSLSAGGRDEGNYLDDALVRQDAQDLYEAGEKKWGTDEVKFLTVLCSRNRNHLLHVFDEYKRISQKDIEQSIKSETSGSFEDALLAIVKCMRNKSAYFAEKLYKSMKGLGTDDNTLIRVMVSRAEIDMLDIRAHFKRLYGKSLYSFIKGDTSGDYRKVLLVLCGGDD
binds	annexin A1 (protein, UniProt P04083 1-346) MAMVSEFLKQAWFIENEEQEYVQTVKSSKGGPGSAVSPYPTFNPSSDVAALHKAIMVKGVDEATIIDILTKRNNAQRQQIKAAYLQETGKPLDETLKKALTGHLEEVVLALLKTPAQFDADELRAAMKGLGTDEDTLIEILASRTNKEIRDINRVYREELKRDLAKDITSDTSGDFRNALLSLAKGDRSEDFGVNEDLADSDARALYEAGERRKGTDVNVFNTILTTRSYPQLRRVFQKYTKYSKHDMNKVLDLELKGDIEKCLTAIVKCATSKPAFFAEKLHQAMKGVGTRHKALIRIMVSRSEIDMNDIKAFYQKMYGISLCQAILDETKGDYEKILVALCGGN
binds	annexin A6 (protein, UniProt P08133 1-673) MAKPAQGAKYRGSIHDFPGFDPNQDAEALYTAMKGFGSDKEAILDIITSRSNRQRQEVCQSYKSLYGKDLIADLKYELTGKFERLIVGLMRPPAYCDAKEIKDAISGIGTDEKCLIEILASRTNEQMHQLVAAYKDAYERDLEADIIGDTSGHFQKMLVVLLQGTREEDDVVSEDLVQQDVQDLYEAGELKWGTDEAQFIYILGNRSKQHLRLVFDEYLKTTGKPIEASIRGELSGDFEKLMLAVVKCIRSTPEYFAERLFKAMKGLGTRDNTLIRIMVSRSELDMLDIREIFRTKYEKSLYSMIKNDTSGEYKKTLLKLSGGDDDAAGQFFPEAAQVAYQMWELSAVARVELKGTVRPANDFNPDADAKALRKAMKGLGTDEDTIIDIITHRSNVQRQQIRQTFKSHFGRDLMTDLKSEISGDLARLILGLMMPPAHYDAKQLKKAMEGAGTDEKALIEILATRTNAEIRAINEAYKEDYHKSLEDALSSDTSGHFRRILISLATGHREEGGENLDQAREDAQVAAEILEIADTPSGDKTSLETRFMTILCTRSYPHLRRVFQEFIKMTNYDVEHTIKKEMSGDVRDAFVAIVQSVKNKPLFFADKLYKSMKGAGTDEKTLTRIMVSRSEIDLLNIRREFIEKYDKSLHQAIEGDTSGDFLKALLALCGGED
